22 compounds from PubChem BioAssay AID330 (DTP/NCI, 2004) can be followed below.

The test has as its system P388 leukemia ip, CD2F1 mice, survival T/C. Nature of the test: NCI In Vivo Anticancer Drug Screen. Data for tumor model P388 Leukemia (intraperitoneal) in CD2F1 (CDF1) mice. The note with it: T/C endpoint: median survival time, higher T/C = longer survival.
The mark [1] stands for this setting: dose: 240.0 mg/kg/injection, schedule: Q01DX005 (ip), vehicle: Klucel (hydroxypropylcellulose) (HPC).
[2] abbreviates: dose: 200.0 mg/kg/injection, schedule: Q01DX009 (ip), vehicle: Klucel (hydroxypropylcellulose) (HPC).
The mark [3] stands for this setting: dose: 200.0 mg/kg/injection, schedule: Q01DX005 (ip), vehicle: saline with Tween-80.
The mark [4] stands for this setting: dose: 240.0 mg/kg/injection, schedule: Q01DX005 (ip), vehicle: saline with Tween-80.

Molecules are shown by their SMILES. The list shows only some results of the screen, not a fair sample: it is rich in T/C values a quarter to a half above the control, in often repeated tests (any T/C) and in doses without a T/C. Further doses and runs are listed elsewhere. T/C gives the treated animals as a percentage of the vehicle group. Some doses have a count of surviving animals in place of a T/C: the source files T/C as zero there, which appears to mark a toxic dose or a test without result, not a measured value. Some survivor counts are full or nearly so, which does not show that the dose was tolerated: survival well below the control is almost never listed, so the zero probably covers shortened survival too. Counts of survivors are from the toxicity check (mostly the fifth day) where no day follows; animals may have died later. Schedules are NCI's codes, taken here to give the interval after Q, in days (D) or hours (H), and the number of doses after X. Where survival is the endpoint, the PubChem record calls one and a half times the control and up active, and a quarter to a half above the control has no call in these data; cut-offs in other NCI protocols can differ. Some entries hold several experiments; their values stand side by side, smallest first.

In the case of `C1=C[N-]c2c3c(ccc2=C1)=CC=C[N-]3.C1=C[N-]c2c3c(ccc2=C1)=CC=C[N-]3.O=[N+]([O-])O.[Cu+]`, the survivor count is listed as 5 of 6 (dose: 12.5 mg/kg/injection, schedule: Q04DX002 (ip), vehicle: saline); 0 of 6 (dose: 100.0 mg/kg/injection, schedule: Q04DX002 (ip), vehicle: suspension in saline); 0 of 6 (dose: 200.0 mg/kg/injection, schedule: Q04DX002 (ip), vehicle: suspension in saline); 0 of 6 (dose: 400.0 mg/kg/injection, schedule: Q04DX002 (ip), vehicle: suspension in saline).
`O=S(=O)(O)SCCNCCc1ccccn1`: the survivor count (dose: 200.0 mg/kg/injection, schedule: Q01DX005 (ip), vehicle: water) is 0 of 6.
For `Fc1cccc(Cl)c1C(Nc1cnccn1)Nc1cnccn1`, under setting [1], the survivor count is on record as 1 of 6.
With `NCC(=O)CN.[Cl-].[Cl-].[Pt+2]`, the T/C by setting is: (dose: 50.0 mg/kg/injection, schedule: Q04DX003 (ip), vehicle: distilled water + Tween-80) 127 % of control; (dose: 50.0 mg/kg/injection, schedule: Q04DX003 (ip), vehicle: other) 130 % of control; (dose: 100.0 mg/kg/injection, schedule: Q04DX003 (ip), vehicle: distilled water + Tween-80) 141 % of control; (dose: 100.0 mg/kg/injection, schedule: Q04DX003 (ip), vehicle: other) 147 % of control; (dose: 200.0 mg/kg/injection, schedule: Q04DX003 (ip), vehicle: distilled water + Tween-80) 138 % of control; (dose: 400.0 mg/kg/injection, schedule: Q04DX003 (ip), vehicle: distilled water + Tween-80) 148 % of control.
Consider `Cc1ccc(SSc2nnnn2C)cc1`, for which, under setting [2], the survivor count is listed as 2 of 6.
On to `[N-]=[N+]=Nc1ccc(SSCCC(=O)ON2C(=O)CCC2=O)cc1`, for which the survivor count under setting [3] is 0 of 5.
Turning to `CC(Cc1ccccc1)N(C)C(=O)c1ccc[n+](C)c1` (stereo not drawn), the survivor count (dose: 200.0 mg/kg/injection, schedule: Q01DX005 (ip), vehicle: saline) is listed as 1 of 6.
As to `COP(=O)(O)OC.[Ti]`, the survivor count was 6 of 6 (dose: 100.0 mg/kg/injection, schedule: Q01DX001 (ip), vehicle: saline with Tween-80); 6 of 6 (dose: 200.0 mg/kg/injection, schedule: Q01DX001 (ip), vehicle: saline with Tween-80); 6 of 6 (dose: 400.0 mg/kg/injection, schedule: Q01DX001 (ip), vehicle: saline with Tween-80).
In the case of `CC(=O)/C(=C\c1ccccc1Cl)C(=O)CCN(C)C`, the T/C (dose: 120.0 mg/kg/injection, schedule: Q01DX005 (ip), vehicle: saline) is 130 % of control. The survivor count (dose: 240.0 mg/kg/injection, schedule: Q01DX005 (ip), vehicle: saline) is 1 of 6.
`O=[N+]([O-])c1cccc(C2CC(c3ccccc3)=Nc3ccccc3S2)c1` (stereo not drawn): the survivor count under setting [2] is given as 1 of 6.
On to `O=C(N1CCCCC(Cl)(Cl)C1=O)C(Cl)(Cl)Cl`, for which, under setting [3], the survivor count is on record as 3 of 5.
With `O=C1CC=C2C3CC4N(CCC45c4cc(O)c(O)cc4N1C25)C/C3=C\CBr` (stereo not drawn), the survivor count is given as 3 of 6 (dose: 60.0 mg/kg/injection, schedule: Q01DX005 (ip), vehicle: saline with Tween-80); 4 of 6 (dose: 120.0 mg/kg/injection, schedule: Q01DX005 (ip), vehicle: saline with Tween-80); 1 of 6 under setting [4].
Regarding `CC(CNc1nc(Nc2ccc(Cl)c(Cl)c2)nc(C(Cl)(Cl)Cl)n1)N(C)C` (stereo not drawn), the survivor count reads like this: (dose: 100.0 mg/kg/injection, schedule: Q01DX009 (ip), vehicle: distilled water + Tween-80) 5 of 6; (dose: 200.0 mg/kg/injection, schedule: Q01DX009 (ip), vehicle: distilled water + Tween-80) 2 of 6.
As for `COc1ccc2c(c1)CCC1C2CCC2(C)C1CCC2(C)N(C)C` (stereo not drawn), the survivor count is recorded as 1 of 6 (dose: 25.0 mg/kg/injection, schedule: Q01DX005 (ip), vehicle: Klucel (hydroxypropylcellulose) (HPC)); 0 of 6 (dose: 50.0 mg/kg/injection, schedule: Q01DX005 (ip), vehicle: Klucel (hydroxypropylcellulose) (HPC)); 0 of 6 (dose: 100.0 mg/kg/injection, schedule: Q01DX005 (ip), vehicle: Klucel (hydroxypropylcellulose) (HPC)); 0 of 6 (dose: 200.0 mg/kg/injection, schedule: Q01DX005 (ip), vehicle: Klucel (hydroxypropylcellulose) (HPC)).
In the case of `O=C1C=C(CCC2=CC(=O)c3ccccc3C2=O)C(=O)c2ccccc21`, the survivor count under setting [4] is 6 of 6.
For `S=c1sc2cccnc2s1`, the survivor count (dose: 100.0 mg/kg/injection, schedule: Q01DX009 (ip), vehicle: saline with Tween-80) is on record as 3 of 6 and the survivor count (dose: 200.0 mg/kg/injection, schedule: Q01DX009 (ip), vehicle: saline with Tween-80) is listed as 0 of 6.
For `NC(=O)c1nnn(Cc2cc(Cl)c(C(=O)c3ccc(Cl)cc3)c(Cl)c2)c1N`, the T/C (dose: 60.0 mg/kg/injection, schedule: Q01DX005 (ip), vehicle: Klucel (hydroxypropylcellulose) (HPC)) is 127 % of control; the T/C (dose: 120.0 mg/kg/injection, schedule: Q01DX005 (ip), vehicle: Klucel (hydroxypropylcellulose) (HPC)) was 125 % of control; the T/C under setting [1] is 134 % of control.
As for `COc1ccc2nc3cc(Cl)ccc3c(Nc3ccccc3NS(C)(=O)=O)c2n1`, the T/C (dose: 200.0 mg/kg/injection, schedule: Q01DX009 (ip), vehicle: other) was 128 % of control. Besides, the survivor count is 0 of 6 (dose: 300.0 mg/kg/injection, schedule: Q01DX009 (ip), vehicle: other) and 0 of 6 (dose: 400.0 mg/kg/injection, schedule: Q01DX009 (ip), vehicle: other).
With `O=C(C#Cc1ccccc1)c1cccnc1`, the survivor count (dose: 50.0 mg/kg/injection, schedule: Q04DX003 (ip), vehicle: Klucel (hydroxypropylcellulose) (HPC)) is recorded as 0 of 6; the survivor count (dose: 100.0 mg/kg/injection, schedule: Q04DX003 (ip), vehicle: Klucel (hydroxypropylcellulose) (HPC)) is recorded as 0 of 6; the survivor count (dose: 200.0 mg/kg/injection, schedule: Q04DX003 (ip), vehicle: Klucel (hydroxypropylcellulose) (HPC)) is listed as 0 of 6; the survivor count (dose: 400.0 mg/kg/injection, schedule: Q04DX003 (ip), vehicle: Klucel (hydroxypropylcellulose) (HPC)) is on record as 0 of 6.
Regarding `Nc1cc([N+](=O)[O-])ccc1O`, the survivor count was 3 of 6 (dose: 400.0 mg/kg/injection, schedule: Q01DX009 (ip), vehicle: saline) and 0 of 6 (dose: 600.0 mg/kg/injection, schedule: Q01DX009 (ip), vehicle: saline).
Turning to `C=Cn1c([N+](=O)[O-])cnc1/C=C/c1ccc(C(=O)O)cc1`, the survivor count under setting [2] is on record as 6 of 6.
In the case of `C=C(OC)C(Nc1cc(OC)c(OC)cc1C(=O)OC1CC(O[C@@H]2C(=O)C(NC(=O)OC)=C3/C(=C\CSSSC)[C@]2(O)C#C/C=C\C#C[C@@H]3OC2OC(C)C(NOC3CC(O)C(SC)C(C)O3)C(O)C2OC2CC(OC)C(NCCC)CO2)OC(C)C1O)OC` (stereo partly drawn), the T/C was 146 % of control (dose: 0.32 micrograms/kg/injection, schedule: Q01DX005 (ip), vehicle: alcohol); 138 and 146 % of control (dose: 0.64 micrograms/kg/injection, schedule: Q01DX005 (ip), vehicle: alcohol); 146 % of control (dose: 1.28 micrograms/kg/injection, schedule: Q01DX005 (ip), vehicle: alcohol); 137 % of control (dose: 20.0 nanograms/kg/injection, schedule: Q01DX005 (ip), vehicle: saline + alcohol); 132 % of control (dose: 40.0 nanograms/kg/injection, schedule: Q01DX005 (ip), vehicle: saline + alcohol); 148 % of control (dose: 80.0 nanograms/kg/injection, schedule: Q01DX005 (ip), vehicle: saline + alcohol). The T/C (dose: 160.0 nanograms/kg/injection, schedule: Q01DX005 (ip), vehicle: saline + alcohol) was 141 % of control. Besides, the survivor count by setting is: (dose: 5.0 micrograms/kg/injection, schedule: Q01DX005 (ip), vehicle: saline + alcohol) 6 of 6; (dose: 10.0 micrograms/kg/injection, schedule: Q01DX005 (ip), vehicle: saline + alcohol) 3 of 6; (dose: 20.0 micrograms/kg/injection, schedule: Q01DX005 (ip), vehicle: saline + alcohol) 1 of 6; (dose: 40.0 micrograms/kg/injection, schedule: Q01DX005 (ip), vehicle: saline + alcohol) 0 of 6.
